Results on one molecule are retold here after patent US20160185853A1 (UNIVERSITY OF SOUTHERN CALIFORNIA, published 2016).

Chains of the proteins cited; added tags and fusions are not shown. Lines headed by an entry give the natural chain unless they say otherwise; changes in a name come on top.
UniProt P11021: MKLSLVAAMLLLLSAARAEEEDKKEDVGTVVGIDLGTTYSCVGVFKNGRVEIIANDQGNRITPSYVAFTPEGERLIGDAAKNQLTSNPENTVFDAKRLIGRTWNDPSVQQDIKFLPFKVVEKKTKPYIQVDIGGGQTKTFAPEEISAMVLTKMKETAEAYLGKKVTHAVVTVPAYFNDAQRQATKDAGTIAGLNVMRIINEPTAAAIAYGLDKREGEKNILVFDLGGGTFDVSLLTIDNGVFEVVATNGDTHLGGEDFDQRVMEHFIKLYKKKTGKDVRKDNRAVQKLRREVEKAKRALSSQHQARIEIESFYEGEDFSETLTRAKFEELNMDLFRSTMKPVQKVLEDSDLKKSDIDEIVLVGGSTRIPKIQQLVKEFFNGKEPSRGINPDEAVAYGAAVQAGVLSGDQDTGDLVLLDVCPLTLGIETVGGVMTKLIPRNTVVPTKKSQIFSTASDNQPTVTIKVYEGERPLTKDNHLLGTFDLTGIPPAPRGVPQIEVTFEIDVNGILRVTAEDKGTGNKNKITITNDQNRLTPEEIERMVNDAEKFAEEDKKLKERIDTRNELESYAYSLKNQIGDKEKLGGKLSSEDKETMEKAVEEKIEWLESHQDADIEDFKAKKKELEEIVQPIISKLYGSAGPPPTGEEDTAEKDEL

No constants are given. Whether binding was seen depends on the method and setting. Some results given as binding are weak or reduced against the parent protein; the word gives no strength.

Assay [1] has as its target T1, human GRP78 (human, UniProt P11021 19-654).
T1 construct: also called BiP/HSPA5; antigen
The assay can be described thus: Western blot of denatured and reduced whole cell lysates of 293T cells [panel B]. (A western blot detects proteins with antibodies after separation by electrophoresis.)

The target of assay [2] is T1, human GRP78. Briefly: summary of the examples.

B1: MAb159 (murine monoclonal antibody) (antibody, V domains shown)
VH: QAQLQQPGAELVKPGASVRLSCKASGYTFTSYWMHWVKQRPGQGLEWIGEINPGNGRTNYNEKFKRKATLTVDKSSSTAYMQLNSLTSEDSAVYYCATLYYYDGTYDYWGQGTTLTVSS
VL: DIVMTQSHKFMSTSVGDRVSVTCKASQNVGTDVAWYQQKPGQSPKALIYWASNRFTGVPDRFTGSGSGTDFTLTINNVQSEDLVDYFCQQYSSSPWTFGGGTKLEIK
notes: Whole murine monoclonal antibody from a hybridoma, purified on protein G; also called murine MAb159; parental murine antibody
On to B1, for which the binding result with human GRP78 [1] and with human GRP78 [2] was “binds” in each case.
